Binding screen against folded nucleic acids

From ROBIN, a set of small-molecule microarray screens (doi:10.1002/anie.202211358).

Oligonucleotides screened, 5′ to 3′:
SAM-II: SAM-II riboswitch RNA pseudoknot, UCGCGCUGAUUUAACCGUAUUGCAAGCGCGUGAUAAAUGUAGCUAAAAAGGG. About 21,000 compounds screened, about 200 hits.
PreQ1: PreQ1 riboswitch RNA pseudoknot, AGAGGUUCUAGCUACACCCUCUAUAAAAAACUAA. From B. subtilis. About 24,000 compounds screened, about 170 hits.
TPP: TPP riboswitch RNA three-way junction, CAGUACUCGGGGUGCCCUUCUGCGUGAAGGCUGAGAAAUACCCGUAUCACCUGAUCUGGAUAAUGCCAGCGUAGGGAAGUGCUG. About 24,000 compounds screened, about 160 hits.

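Each compound is printed as two spots on a slide made to bind it covalently, so it has no test concentration; the read-out is fluorescence of the bound, labelled oligonucleotide. The data file lists only calls. An earlier report of the laboratory on the PreQ1, TPP and SAM-II riboswitches (doi:10.1038/s41467-019-09493-3) used 1 µM RNA for 2 h and required a mean Z-score above 3 (spot signal-to-noise against the whole library), a score well above that on a control array, and duplicate spots agreeing (coefficient of variation under 100); it then also set aside compounds that hit other targets, which this list keeps. The cut-offs behind this list may differ. These are primary screening calls, not affinities; a compound without a hit may have attached poorly or may still bind in solution.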 Key: 1 = hit, 0 = tested without a hit. This is an unselected part of the compounds tested. A target missing from an entry has no call listed here. A dash means that no call is listed here.

| # | SMILES | SAM-II | PreQ1 | TPP |
|---|---|---|---|---|
| 1 | `COCC(=O)N1CCCN(C(=O)c2cn(CCC3CCCCN3)nn2)CC1` (centres undefined) | 0 | 0 | 0 |
| 2 | `CC(=O)c1cccc(N2CC(=O)C(c3nc4ccccc4s3)=C2N)c1` | - | 0 | 0 |
| 3 | `O=C(NCc1ccc(-c2ccccc2)cc1)[C@]12CNC[C@H]1CNC2` | 0 | 0 | 0 |
| 4 | `O=C(CC1CNCCO1)N(Cc1ccncc1)Cc1ccc(F)cc1` (centres undefined) | 0 | 0 | 0 |
| 5 | `CCCCOCC(O)CN1CCN(C(C)=O)CC1.O=C(O)C(=O)O` (centres undefined) | 0 | 0 | 0 |
| 6 | `CCOC(=O)C1CCCN(C(=O)c2ccc(CNc3c(N4CCC(C)CC4)c(=O)c3=O)cc2)C1` (centres undefined) | - | 0 | 0 |
| 7 | `CNC(=O)c1ccc(N2C(=S)N(c3ccc(C#N)c(C(F)(F)F)c3)C(=O)C23CCC3)cc1F` | 0 | 0 | 0 |
| 8 | `CCOC(=O)c1c(N)n(-c2cccc(OC)c2)c2nc3ccccc3nc12` | 0 | 0 | 0 |
| 9 | `O=C(c1ccccc1-c1ncn[nH]1)N1CCCC2(CCNC2)C1` (centres undefined) | 0 | 0 | 0 |
| 10 | `Nc1c(-c2ccncc2)sc2nc(-c3cccs3)ccc12` | 0 | 0 | 0 |
| 11 | `O=C1CCC(c2ccccc2)(c2ccccc2)CC1` | 0 | 0 | 0 |
| 12 | `COC(=O)c1sc(-c2ccc(Cl)cc2)cc1N` | 0 | 0 | 0 |
| 13 | `CN(Cc1nc2ccccc2[nH]1)C(=O)c1cccc(CC2CCNCC2)c1` | 0 | 0 | 0 |
| 14 | `CN(Cc1nc(-c2ccccn2)no1)c1nc(N)nc2[nH]cnc12` | 0 | 0 | 0 |
| 15 | `CCN(C)C[C@@H]1CN(C(=O)c2c(F)ccc(OC)c2F)C[C@@H]1CO` | 0 | 0 | 0 |
| 16 | `Nc1ccc2c(c1)C(c1ccccc1)NCC(=O)N2` (centres undefined) | 0 | 0 | 0 |
| 17 | `O=C(CN1CCCCCC1)N1CCC(C(O)Cc2ccccc2)CC1` (centres undefined) | 0 | 0 | 0 |
| 18 | `COc1cccc(CNc2nc3ccc(C)cc3cc2-c2noc(C(C)C)n2)c1OC` | - | 0 | 0 |
| 19 | `Cc1cc(N)n(CC(=O)N2CC[C@@]3(O)CCN(S(C)(=O)=O)C[C@H]3C2)n1` | 0 | 0 | 0 |
| 20 | `COc1cc(N)cc2c1OCO2` | 0 | 0 | 0 |
| 21 | `C[C@@H]1C[C@H]2OC(=O)[C@]3(C)CCC[C@@](C)([C@@H]23)[C@@]1(O)CCc1ccoc1` | 0 | 0 | 0 |
| 22 | `O=C1NC[C@@]2(C(=O)O)CN(Cc3cccc(OCCO)c3)C[C@@H]12` | 0 | 0 | 0 |
| 23 | `Cc1ccc(N2C(=O)CC(NC3CCCC3)C2=O)cc1` (centres undefined) | 0 | 0 | 0 |
| 24 | `Cc1ccc(S(=O)(=O)Nc2ccccc2CNc2ccccc2Br)cc1` | 0 | 0 | 0 |
| 25 | `CCn1c(N)nc2cc(C(=O)N3CCN(c4cnccn4)CC3)cnc21` | 0 | 0 | 0 |
| 26 | `Cc1nnsc1CNCc1nc(-c2ccco2)no1` | 0 | 0 | 0 |
| 27 | `CCCCNCC1CCCO1` (centres undefined) | 0 | 0 | 0 |
| 28 | `Cc1ccc(NC2OC(=O)c3ccccc32)cc1C` (centres undefined) | 0 | 0 | 0 |
| 29 | `COc1ccc(Cl)cc1NC(=O)c1nnn(Cc2cccc(C(F)(F)F)c2)c1N` | 0 | 0 | 0 |
| 30 | `COCc1ncc(CN2CC[C@@H]3[C@@H](CCC(=O)N3CCCN)C2)cn1` | 0 | 0 | 0 |
| 31 | `O=C([C@@H]1CCCN1C1CCNCC1)N1CCN(Cc2cccnc2)CC1` | 0 | 0 | 0 |
| 32 | `CC(N)Cn1ccnc1` (centres undefined) | 0 | 0 | 0 |
| 33 | `c1cn(CCN2CCOCC2)c(-c2cn(C3CCNCC3)nn2)n1` | 0 | 0 | 0 |
| 34 | `Cc1cc(N2CCN(S(=O)(=O)c3cc(F)ccc3F)CC2)nc(NC2CCCCC2)n1` | - | 0 | 0 |
| 35 | `Cc1ccc(S(=O)(=O)[C@H]2CS(=O)(=O)C[C@@H]2NCCCOC(C)C)cc1` | - | 0 | 0 |
| 36 | `CC(C)(C)NC(=O)CNc1cc(CCN)ncn1` | 0 | 0 | 0 |
| 37 | `CC(C)c1cccc(C(C)C)c1O` | 0 | 0 | 0 |
| 38 | `OC1(CNCc2cccc(OCc3ccccc3)c2)CCCNC1` (centres undefined) | 1 | 0 | 0 |
| 39 | `Cc1cc(C)c2c(n1)nn1c(NCCOCCO)cc(C)nc21` | - | 0 | 0 |
| 40 | `CCCCCCNc1cc(C)nc2nc(-c3cccnc3)nn12` | - | 0 | 0 |
| 41 | `C=CCOC(=O)C1=C(N)OC(C)=C(C(=O)OC)C12C(=O)Nc1ccccc12` (centres undefined) | 0 | 0 | 0 |
| 42 | `CCCOC(=O)c1ccc(Nc2nc(SC)nc3c2CCC3)cc1` | - | 0 | 0 |
| 43 | `CN(CCc1cn[nH]c1)C(=O)[C@H]1CC[C@@H](N)C1` | 0 | 0 | 0 |
| 44 | `CC(C)(C)c1cn2c3ccccc3nc2n1CCO` | 0 | 0 | 0 |
| 45 | `O=C(Nc1cccc(Br)c1)c1cccc(S(=O)(=O)N2CCCCCC2)c1` | 0 | 0 | 0 |
| 46 | `O=C(CCc1ccc(O)cc1)c1c(O)cc(O)cc1O[C@@H]1O[C@H](CO)[C@H](O)[C@H](O)[C@H]1O` | 0 | 0 | 0 |
| 47 | `Cc1cc(C)n(-c2nc(C)c(C(=O)N(C)CCO)s2)n1` | - | 0 | 0 |
| 48 | `O=C(c1ccc(C=Cc2n[nH]c3ccccc23)cc1)N1CCNCC1` | 0 | 0 | 0 |
| 49 | `OCCCNc1nc2sc3c(c2c2ncnn12)CCCC3` | 0 | 0 | 0 |
| 50 | `Nc1ccc(-c2ccc(C(=O)N3CCC(CN4CCCC4=O)CC3)cn2)cn1` | 0 | 0 | 0 |
| 51 | `Cc1nc2ccc(NC(=S)NCCCO)cc2nc1C` | 0 | 0 | 0 |
| 52 | `Nc1nc2c(s1)C(c1ccc(OC3CCCC3)cc1)CC(=O)N2` (centres undefined) | 0 | 0 | 0 |
| 53 | `O=C(c1cncc(Br)c1)N1CCC(N2CCCC2)CC1` | 0 | 0 | 0 |
| 54 | `N#C/N=C/N1CC=C(c2ccc(Cl)cc2)CC1` | 0 | 0 | 0 |
| 55 | `O=S(=O)(c1ccc(-c2csc(Nc3ccc(F)cc3)n2)cc1)N1CCCCC1` | 0 | 0 | 0 |
| 56 | `Nc1nonc1-n1nncc1-c1ccncc1` | 0 | 0 | 0 |
| 57 | `N#CC1=C(N)Oc2cc(O)ccc2C1c1ccc(OCc2ccccc2)cc1` (centres undefined) | 0 | 0 | 0 |
| 58 | `OCCO[C@H]1C[C@@H](O)C12CCN(Cc1ccc(-n3ccnc3)cc1)CC2` | 0 | 0 | 0 |
| 59 | `COc1cc(N2CCC(N(C)C)CC2)ccc1Nc1ncc(Cl)c(Nc2ccccc2P(C)(C)=O)n1` | 0 | 0 | 0 |
| 60 | `O=[N+]([O-])c1cccc(CN2CCCC(O)C2)c1` (centres undefined) | 0 | 0 | 0 |
| 61 | `Cn1cccc1CNCCSc1nnnn1-c1ccccc1` | - | 0 | 0 |
| 62 | `COc1ccccc1C1C(C#N)=C(N)OC2=C1S(=O)(=O)N(Cc1ccccc1C)c1ccccc12` (centres undefined) | - | 0 | 0 |
| 63 | `NCc1cc(-c2ccccc2)no1` | 0 | 0 | 0 |
| 64 | `O=C(c1ccc(-c2ncn[nH]2)cc1)N1[C@H]2CCNC[C@@H]1CC2` | 0 | 0 | 0 |
| 65 | `Cc1cc(C)c2c(N)c(C(=O)Nc3ccccc3F)sc2n1` | 0 | 0 | 0 |

Once more, the final 7:

* COc1cc(N2CCC(N(C)C)CC2)ccc1Nc1ncc(Cl)c(Nc2ccccc2P(C)(C)=O)n1 : SAM-II: 0; PreQ1: 0; TPP: 0
* O=[N+]([O-])c1cccc(CN2CCCC(O)C2)c1 (centres undefined) : SAM-II: 0; PreQ1: 0; TPP: 0
* Cn1cccc1CNCCSc1nnnn1-c1ccccc1 : PreQ1: 0; TPP: 0
* COc1ccccc1C1C(C#N)=C(N)OC2=C1S(=O)(=O)N(Cc1ccccc1C)c1ccccc12 (centres undefined) : PreQ1: 0; TPP: 0
* NCc1cc(-c2ccccc2)no1 : SAM-II: 0; PreQ1: 0; TPP: 0
* O=C(c1ccc(-c2ncn[nH]2)cc1)N1[C@H]2CCNC[C@@H]1CC2 : SAM-II: 0; PreQ1: 0; TPP: 0
* Cc1cc(C)c2c(N)c(C(=O)Nc3ccccc3F)sc2n1 : SAM-II: 0; PreQ1: 0; TPP: 0